Results on one compound are retold here after patent publication US10544186B2, “Process for the synthesis of amide bonds with the aid of novel catalysts” (Merck Patent GmbH, priority 2016, dated 2020).

A short description of this data set: Solubility of the amide linking reagents in organic solvents. The class given is physicochemical. The protocol: All solubility determinations are carried out in a tared gas-tight 4 ml bottle with magnetic stirrer bar. The amide linking reagent (at least 5 mg) is weighed out and a certain amount of the solvent to be investigated is added. The mixture is stirred for 2-5 minutes. If undissolved solid is still present, solvent (50-100 μl) is additionally added, and the mixture is stirred again. As soon as a clear solution is present, the experiment is terminated.

The structures appear in SMILES notation.

For the compound `CN(C)C(n1n[n+]([O-])c2ncccc21)=[N+](C)C.F[P-](F)(F)(F)(F)F` [HATU, 1-(dimethylamino(dimethylamonium-1-ylidene)methyl)-1H-azabenzo[d][1,2,3] triazole 3-oxide hexafluorophosphate, reference compound], the “solubility in 9CH2Cl2:1CH3CN” value (solvent 9CH2Cl2:1CH3CN) came to 1200 µg/mL. Further, under “solvent CH2Cl2”, the “solubility in CH2Cl2” value is below 1200 µg/mL. Further, the “solubility in CH3CN” value (solvent CH3CN) is 212000 µg/mL. For the same compound, the “solubility in DMF” value (solvent DMF) came to 370000 µg/mL. The “solubility in Hexane” value (solvent Hexane) is below 1200 µg/mL. Also, under “solvent THF”, the “solubility in THF” value is below 1200 µg/mL. Also, the “solubility in Toluene” value (solvent Toluene) is below 1200 µg/mL.
